This is an account of results in paper doi:10.1101/2021.03.29.437469.

Chains of the proteins cited; added tags and fusions are not shown.
UniProt P34160: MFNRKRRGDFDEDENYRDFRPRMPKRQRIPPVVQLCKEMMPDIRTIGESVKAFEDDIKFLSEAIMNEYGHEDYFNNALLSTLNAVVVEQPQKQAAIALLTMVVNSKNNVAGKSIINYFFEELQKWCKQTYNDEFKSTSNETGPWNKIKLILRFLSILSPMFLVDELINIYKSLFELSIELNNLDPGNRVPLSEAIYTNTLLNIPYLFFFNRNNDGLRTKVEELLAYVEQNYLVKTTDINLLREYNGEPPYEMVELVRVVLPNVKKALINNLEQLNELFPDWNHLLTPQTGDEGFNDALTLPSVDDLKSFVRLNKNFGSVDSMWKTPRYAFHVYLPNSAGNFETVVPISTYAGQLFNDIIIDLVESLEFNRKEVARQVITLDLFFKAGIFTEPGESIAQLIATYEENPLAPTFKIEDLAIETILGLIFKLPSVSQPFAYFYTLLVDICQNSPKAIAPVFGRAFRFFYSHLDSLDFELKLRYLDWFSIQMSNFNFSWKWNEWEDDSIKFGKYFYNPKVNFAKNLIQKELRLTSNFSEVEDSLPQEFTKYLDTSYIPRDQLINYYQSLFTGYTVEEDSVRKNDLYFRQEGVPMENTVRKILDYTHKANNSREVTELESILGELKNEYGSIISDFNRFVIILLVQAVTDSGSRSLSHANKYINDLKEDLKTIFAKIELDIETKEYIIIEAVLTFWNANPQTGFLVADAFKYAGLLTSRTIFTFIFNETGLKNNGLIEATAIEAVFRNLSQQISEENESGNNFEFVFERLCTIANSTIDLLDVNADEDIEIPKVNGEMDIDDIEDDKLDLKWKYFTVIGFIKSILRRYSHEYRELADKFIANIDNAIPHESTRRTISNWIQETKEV
UniProt P24783: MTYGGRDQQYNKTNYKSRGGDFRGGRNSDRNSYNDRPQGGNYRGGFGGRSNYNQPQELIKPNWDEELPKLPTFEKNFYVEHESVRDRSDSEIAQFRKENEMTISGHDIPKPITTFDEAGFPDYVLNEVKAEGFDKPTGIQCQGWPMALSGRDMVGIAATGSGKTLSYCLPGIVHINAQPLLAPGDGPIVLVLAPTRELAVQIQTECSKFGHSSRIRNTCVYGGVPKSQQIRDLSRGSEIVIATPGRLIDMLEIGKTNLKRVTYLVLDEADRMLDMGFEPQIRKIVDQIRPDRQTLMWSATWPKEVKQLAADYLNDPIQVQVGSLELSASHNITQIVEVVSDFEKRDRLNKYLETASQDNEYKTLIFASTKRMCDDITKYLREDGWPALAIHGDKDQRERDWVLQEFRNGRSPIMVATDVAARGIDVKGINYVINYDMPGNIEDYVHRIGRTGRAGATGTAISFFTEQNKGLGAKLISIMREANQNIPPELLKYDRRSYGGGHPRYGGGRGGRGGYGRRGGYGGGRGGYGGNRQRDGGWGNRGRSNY

Where two headings read alike, the source gives them in different places. Results are given in words; binding and its absence hold for the method and conditions named. In cells and extracts the contact can be indirect. These calls come from enrichment with a bait or labelling near it, and not all partners need be listed. Where a sequence is shown, tags or fusion partners need not be part of it.

Holding throughout (test): affinity purification with mass spectrometry
Assay [1] concerns the target T1, C-terminally TAP-tagged Tif4631p (S. cerevisiae) (UniProt P39935).
T1 sequence: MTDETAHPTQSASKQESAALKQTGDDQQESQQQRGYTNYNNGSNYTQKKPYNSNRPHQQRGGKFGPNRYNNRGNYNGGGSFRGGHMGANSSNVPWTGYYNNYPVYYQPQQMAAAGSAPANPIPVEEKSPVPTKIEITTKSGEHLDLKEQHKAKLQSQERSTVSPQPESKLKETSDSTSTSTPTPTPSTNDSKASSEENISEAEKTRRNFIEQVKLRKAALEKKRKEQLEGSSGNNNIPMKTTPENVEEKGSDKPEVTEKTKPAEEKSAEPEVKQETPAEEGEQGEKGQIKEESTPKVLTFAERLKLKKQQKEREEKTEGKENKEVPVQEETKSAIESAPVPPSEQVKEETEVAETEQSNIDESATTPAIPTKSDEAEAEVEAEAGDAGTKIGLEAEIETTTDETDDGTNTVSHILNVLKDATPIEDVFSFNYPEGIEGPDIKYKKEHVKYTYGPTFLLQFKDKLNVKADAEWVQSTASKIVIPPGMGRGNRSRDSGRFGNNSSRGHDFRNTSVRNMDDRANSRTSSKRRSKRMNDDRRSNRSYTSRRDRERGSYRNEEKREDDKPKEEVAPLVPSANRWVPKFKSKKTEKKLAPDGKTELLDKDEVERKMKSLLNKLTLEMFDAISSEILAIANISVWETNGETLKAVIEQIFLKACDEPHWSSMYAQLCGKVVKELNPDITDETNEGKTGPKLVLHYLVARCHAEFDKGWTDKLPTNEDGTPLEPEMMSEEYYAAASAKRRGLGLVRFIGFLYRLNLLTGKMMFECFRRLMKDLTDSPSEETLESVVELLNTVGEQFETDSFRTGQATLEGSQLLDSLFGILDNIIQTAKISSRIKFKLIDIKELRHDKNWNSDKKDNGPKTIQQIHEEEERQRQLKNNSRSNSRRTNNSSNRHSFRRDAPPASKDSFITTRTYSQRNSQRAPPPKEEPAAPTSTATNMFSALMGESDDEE

Assay [2] addresses T1, C-terminally TAP-tagged Tif4631p (S. cerevisiae). The source holds these as a separate data set.
Assay [3] shares this target. This is another data set of the same source.

Take Cbc1p (from UniProt P34160 1-861): the binding entry in assay [1] and in assay [2] was “binds” in each case.

In the case of Dbp2p (from UniProt P24783 1-546), the binding result in assay [1] and in assay [2] was “binds” throughout.

B1: Upf3p (protein, UniProt P48412 1-387)
chain: MSNVAGELKNSEGKKKGRGNRYHNKNRGKSKNETVDPKKNENKVNNATNATHNNSKGRRNNKKRNREYYNYKRKARLGKSTENEGFKLVIRLLPPNLTADEFFAILRDNNNDDGDKQDIQGKLKYSDWCFFEGHYSSKVFKNSTYSRCNFLFDNLSDLEKCANFIKTCKFIDNKDNITIPDMKLSPYVKKFTQTSKKDAALVGTIEEDEIFKTFMNSMKQLNENDEYSFQDFSVLKSLEKEFSKSIELENKIAERTERVLTELVGTGDKVKNKNKKKKNKNAKKKFKEEEASAKIPKKKRNRGKKKRENREKSTISKTKNSNVVIIEEAGKEVLKQRKKKMLLQEKLKISNSSQPQSSSAQTQPSFQPKENLFVPRVKILHRDDTKK
On to B1, for which the binding entry in assay [1] and in assay [3] was “binds” in each case.

B2: Ski3p (protein, UniProt P17883 1-1432)
chain: MSDIKQLLKEAKQELTNRDYEETIEISEKVLKLDPDNYFAHIFLGKALSSLPASNNVSSNRNLERATNHYVSAAKLVPDNLLAWKGLFLLFRTTEVVPDILSYDEYFDLCGQYADALLKQEQSQVELINDIKLLKKTHPDCQKAFYQHLKPGSLMAETIGRHLSTPQDALLNLIKILSNIETTEIGKTLSQNRLKLKASDPDYQIKLNSFSWEIIKNSEIDQLYNQLVNILADDQKRSEIENQWLEYRIKVLKSMPLDVKKDFFTKVKEMVEDMVLVNHQSLLAWQKYFEWTDYEDLDNMDAPLIIKYFKKFPKDPLAMILYSWLSSKLSKYDIKSLESANKPPEGHKKTEKETDIKDVDETNEDEVKDRVEDEVKDRVEDEVKDQDEEAKEDEEEDLDDIEIGLLEEEVVTVLTENIVKCKNNILAHRILCQYYLLTKEYEAALPYIKNGISLIAYNIKDLGVHLPLTKREFSLDLATVYTYVDAPKDHNAALKLYDNILSGDFSNIQAKMGKGIIFIERKNWKDAMTLLTQVHEQSPNNLEVLSELSWSKAHMGYMDEALAGLDTVIKGIKGMDLRSIDFRALNLWRQAKVYIMKHASINDAKQENVKCAFKLLIQSIKILDTFAPGFSTLGDIYCHYYKDHLRAFKCYFKAFDLDAGDYTAAKYITETYASKPNWQAASSIASRLIKGEKAKAELRSNNWPFRVVGIAHLEKQEESDSIEWFQSALRVDPNDVESWVGLGQAYHACGRIEASIKVFDKAIQLRPSHTFAQYFKAISLCDVGEYLESLDILEKVCQEAATEESFQIGLVEVLMRCSLDLYSQGFLLKSVSIAKDTIERIKIIISELKCENQQVWIYLSQVLRLFIWIESKVDTLPVESLVSIFENSQFSGSEEIDSVDNIKIDTLLDSTTDDNVSIACKFLILASKYSVSDQKFTDIAGTVRASYWYNIGISELTAFITLKEPQYRDAAIFAFKKSIQLQSNTSETWIGLGIATMDINFRVSQHCFIKATALEPKATNTWFNLAMLGLKKKDTEFAQQVLNKLQSLAPQDSSPWLGMALILEEQGDIIGSSKLFAHSFILSNGRSKAAQFMYAKNVLENHINNGDDERDIETVEKLTTASIALEQFFKKSPDSQFALQCALLTLERLHHYENANELANRLIGILEKKFEKTQDERELFNFAIIKGQFARIHLGLGNFELSIENADLSQGIISESSDEKSMKTKISNHICLGLSYFFLNDFDQTLNQFQELLSISKDSKHLVVLIAKVLYDVGESDTKEIALQELTEYIATSGADLLVTLTIAAMSILDDKREDLSIILEELKALPLSKQIIDKHKDAPYLIEEITKRLYRNDTGKQVWQRSAYFFPNNLKVWERLDKNIQRRIASNGQNKVTAEEMSKLYCESKNLRSIQRGMFLCPWNVTAVKALNECF
As to B2, in assay [3], the binding result is on record as “binds”.

B3: eIF4B (protein, UniProt P34167 1-436)
chain: MAPPKKTVKKMDLTSFLNDDTFGSSWAEEDVDLNKITIPIETANANTIPLSELAHAKNNSNNTRSGGFGGSFGGRSRLDPALGGGSSDRREEYPVPDAPPYRAVINNIPWDITPEGVQAWVEDGLVKPEAVEEVVLPKNLRDPTRLKGNAFVTLKERADLVAVLKFNGTKLNERTVYVSVAAPRRGGGADVDWSSARGSNFQGDGREDAPDLDWGAARGSNFRGPRREREEVDIDWTAARGSNFQGSSRPPRREREEVDIDWSAARGSNFQGSSRPPRREREEPDIDWSAARGSNFQSSSRPPRREREEPDIDWSAARGSNFQSSSRPPRREREKEEPALDWGAARGAQFGKPQQTKNTYKDRSLTNKKTTDEQPKIQKSVYDVLRTEDDDEDEEAEKQNGDAKENKVDAAVEKLQDKTAQLTVEDGDNWEVVGKK
On to B3, for which, in assay [3], the binding entry was “binds”.
